We go through four sequences from article PMC5796162.

Data set [1] has as its target histone H4 (UniProt P62803). As to the kind of experiment: competition with a labelled probe. To be noted: 50x mutant competitor had little effect on complex; LightShift Chemiluminescent EMSA kit: 200 fmol biotin probe, 10 ug nuclear extract, 1x binding buffer, poly dI-dC, glycerol, 20 uL; 6% native gel; protein in an extract.
Data set [2] has as its target histone H4 (UniProt P62803). As to the kind of experiment: EMSA supershift. To be noted: anti-histone H4 supershift, 50x unlabeled probe abolishes band; LightShift Chemiluminescent EMSA kit: 200 fmol biotin probe, 10 ug nuclear extract, 1x binding buffer, poly dI-dC, glycerol, 20 uL; 6% native gel; protein in an extract; label: 5'-biotin (unlabeled as competitor).
Data set [3] addresses T1, E2F2 (UniProt E1BD75).
T1 sequence (looked up, limits assumed): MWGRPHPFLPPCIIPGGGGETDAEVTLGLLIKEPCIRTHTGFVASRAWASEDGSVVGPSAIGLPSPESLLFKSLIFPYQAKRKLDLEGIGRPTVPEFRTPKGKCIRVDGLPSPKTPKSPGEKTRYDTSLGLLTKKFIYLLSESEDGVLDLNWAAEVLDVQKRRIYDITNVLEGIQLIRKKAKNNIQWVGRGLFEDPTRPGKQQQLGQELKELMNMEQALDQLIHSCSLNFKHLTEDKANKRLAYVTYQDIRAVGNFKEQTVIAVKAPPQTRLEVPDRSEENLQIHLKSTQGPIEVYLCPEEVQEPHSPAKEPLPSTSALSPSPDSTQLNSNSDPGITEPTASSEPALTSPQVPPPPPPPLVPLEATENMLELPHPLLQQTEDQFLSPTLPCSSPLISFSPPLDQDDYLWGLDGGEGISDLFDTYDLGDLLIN
The data set can be described thus: competition with a labelled probe. To be noted: 50x mutant competitor, results stated similar to histone H4; LightShift Chemiluminescent EMSA kit: 200 fmol biotin probe, 10 ug nuclear extract, 1x binding buffer, poly dI-dC, glycerol, 20 uL; 6% native gel; protein in an extract.

Data set [4] deals with T1, E2F2. As to the kind of experiment: EMSA supershift. To be noted: anti-E2F2 supershift, 50x unlabeled probe competes; LightShift Chemiluminescent EMSA kit: 200 fmol biotin probe, 10 ug nuclear extract, 1x binding buffer, poly dI-dC, glycerol, 20 uL; 6% native gel; protein in an extract; label: 5'-biotin (unlabeled as competitor).

For at least one entry, the source does not settle the construct or the ends of the probe. Where cells or extracts were used, other partners may take part. For some of these results: A negative result means that nothing was seen under these conditions. For some of these results: At least one verdict rests on a figure or table, not on a statement of the authors. For some of these results: Where a protein sequence is shown, tags need not be part of it.

“CCCGGATAGGCGCCGAAAACAGCCAATCAGCGCG / CGCGCTGATTGGCTGCTTTTGGCGCCTATCCGGG [mHistone H4 probe]”: in the data set with histone H4 [1], the binding result is reported as “no binding”.

Regarding “CCCGGATAGGCGCCGCCCGCAGCCAATCAGCGCG (double strand) [histone H4 probe (SIX1 promoter)]”, the binding result with histone H4 [2] is on record as “binds”.

With “CCGCAGCCAATCAGCGAAAAGAGAACGCTGCGCG (double strand) [mE2F2 probe]”, the binding result with E2F2 [3] is on record as “no binding”.

As for “CCGCAGCCAATCAGCGCGCCGAGAACGCTGCGCG (double strand) [E2F2 probe (SIX1 promoter)]”, the binding result with E2F2 [4] is “binds”.
